Most of the targets with a hit are listed elsewhere, so they are rarer here than in the full data. Single values of this set are uncertain. Only a part is listed here, and it is no random draw.

Protein sequences, listed by entry. Tags and fused reporters are not part of them. Lines headed by an entry give the natural chain unless they say otherwise; changes in a name come on top.
UniProt Q9UHC7: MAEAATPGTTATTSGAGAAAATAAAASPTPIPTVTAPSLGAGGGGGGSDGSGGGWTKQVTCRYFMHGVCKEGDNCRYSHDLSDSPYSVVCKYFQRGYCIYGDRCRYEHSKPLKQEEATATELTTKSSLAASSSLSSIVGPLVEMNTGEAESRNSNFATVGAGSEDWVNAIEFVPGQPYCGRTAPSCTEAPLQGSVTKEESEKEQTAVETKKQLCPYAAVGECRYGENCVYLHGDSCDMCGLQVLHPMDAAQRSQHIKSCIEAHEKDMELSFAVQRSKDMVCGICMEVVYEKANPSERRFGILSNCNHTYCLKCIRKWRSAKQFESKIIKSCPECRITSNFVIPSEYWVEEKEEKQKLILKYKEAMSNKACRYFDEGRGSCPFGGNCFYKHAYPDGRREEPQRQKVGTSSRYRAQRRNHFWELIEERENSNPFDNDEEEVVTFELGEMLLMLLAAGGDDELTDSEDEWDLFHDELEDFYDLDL
UniProt Q9UHB4: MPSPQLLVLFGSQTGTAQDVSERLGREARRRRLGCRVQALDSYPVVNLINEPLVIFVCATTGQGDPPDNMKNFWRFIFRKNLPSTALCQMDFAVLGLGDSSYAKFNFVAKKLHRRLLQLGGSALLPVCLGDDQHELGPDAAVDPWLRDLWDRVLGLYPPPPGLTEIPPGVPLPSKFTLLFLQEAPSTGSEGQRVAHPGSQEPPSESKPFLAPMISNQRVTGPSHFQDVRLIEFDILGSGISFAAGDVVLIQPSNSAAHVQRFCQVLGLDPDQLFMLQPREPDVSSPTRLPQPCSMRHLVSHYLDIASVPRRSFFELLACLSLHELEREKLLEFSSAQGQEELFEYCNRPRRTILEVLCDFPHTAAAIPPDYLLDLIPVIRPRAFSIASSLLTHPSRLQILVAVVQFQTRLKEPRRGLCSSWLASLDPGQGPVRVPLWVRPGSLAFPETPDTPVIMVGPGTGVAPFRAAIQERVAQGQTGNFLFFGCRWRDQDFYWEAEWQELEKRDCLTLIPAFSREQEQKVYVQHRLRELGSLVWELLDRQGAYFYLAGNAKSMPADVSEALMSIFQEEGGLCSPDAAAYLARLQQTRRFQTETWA
UniProt Q9NZ63: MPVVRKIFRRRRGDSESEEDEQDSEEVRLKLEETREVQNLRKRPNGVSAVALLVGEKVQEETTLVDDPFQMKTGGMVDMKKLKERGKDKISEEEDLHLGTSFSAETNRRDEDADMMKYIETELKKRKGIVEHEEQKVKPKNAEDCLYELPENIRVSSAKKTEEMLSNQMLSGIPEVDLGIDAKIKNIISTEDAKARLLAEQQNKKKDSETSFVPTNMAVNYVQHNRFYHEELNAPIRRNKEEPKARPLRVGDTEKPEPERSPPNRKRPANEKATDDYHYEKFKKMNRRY
UniProt Q9P253: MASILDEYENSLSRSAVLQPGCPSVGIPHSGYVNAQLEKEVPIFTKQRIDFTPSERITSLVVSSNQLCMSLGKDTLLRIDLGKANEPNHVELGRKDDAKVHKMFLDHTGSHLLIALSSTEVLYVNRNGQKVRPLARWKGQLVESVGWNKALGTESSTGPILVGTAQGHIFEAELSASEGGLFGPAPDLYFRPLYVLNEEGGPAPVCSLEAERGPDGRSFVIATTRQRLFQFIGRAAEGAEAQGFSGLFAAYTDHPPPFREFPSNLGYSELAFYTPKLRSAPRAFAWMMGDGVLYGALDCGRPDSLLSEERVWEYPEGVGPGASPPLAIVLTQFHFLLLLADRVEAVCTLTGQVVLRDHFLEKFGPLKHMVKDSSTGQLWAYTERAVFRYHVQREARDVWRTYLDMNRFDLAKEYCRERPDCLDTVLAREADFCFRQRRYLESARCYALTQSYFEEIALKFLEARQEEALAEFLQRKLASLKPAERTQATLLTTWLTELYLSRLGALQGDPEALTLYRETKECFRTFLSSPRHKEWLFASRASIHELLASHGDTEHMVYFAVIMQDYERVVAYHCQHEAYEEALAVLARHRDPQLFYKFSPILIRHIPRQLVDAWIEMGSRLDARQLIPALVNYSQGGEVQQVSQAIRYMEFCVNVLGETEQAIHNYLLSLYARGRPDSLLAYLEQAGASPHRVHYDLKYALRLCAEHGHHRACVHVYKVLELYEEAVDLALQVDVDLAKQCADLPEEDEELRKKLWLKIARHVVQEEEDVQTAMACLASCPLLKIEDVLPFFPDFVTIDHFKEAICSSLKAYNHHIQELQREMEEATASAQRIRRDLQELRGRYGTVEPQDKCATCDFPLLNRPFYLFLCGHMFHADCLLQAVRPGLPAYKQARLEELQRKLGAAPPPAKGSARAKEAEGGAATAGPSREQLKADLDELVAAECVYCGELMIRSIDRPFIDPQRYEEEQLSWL
UniProt Q9NVV4: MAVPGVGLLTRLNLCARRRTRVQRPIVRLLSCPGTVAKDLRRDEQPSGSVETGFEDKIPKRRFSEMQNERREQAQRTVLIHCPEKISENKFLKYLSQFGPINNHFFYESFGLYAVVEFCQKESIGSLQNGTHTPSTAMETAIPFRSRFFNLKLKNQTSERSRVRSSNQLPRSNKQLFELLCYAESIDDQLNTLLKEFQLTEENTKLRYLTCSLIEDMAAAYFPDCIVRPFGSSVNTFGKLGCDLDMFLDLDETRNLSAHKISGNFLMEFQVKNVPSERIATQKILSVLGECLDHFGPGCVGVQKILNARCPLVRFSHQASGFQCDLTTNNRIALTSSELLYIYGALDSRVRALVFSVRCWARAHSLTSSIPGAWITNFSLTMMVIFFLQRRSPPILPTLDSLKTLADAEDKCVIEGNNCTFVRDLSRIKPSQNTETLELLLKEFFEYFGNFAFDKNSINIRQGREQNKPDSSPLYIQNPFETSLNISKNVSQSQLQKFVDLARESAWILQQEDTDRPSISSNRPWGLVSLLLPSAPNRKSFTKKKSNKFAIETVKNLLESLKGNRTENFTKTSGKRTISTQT
UniProt Q9NX46: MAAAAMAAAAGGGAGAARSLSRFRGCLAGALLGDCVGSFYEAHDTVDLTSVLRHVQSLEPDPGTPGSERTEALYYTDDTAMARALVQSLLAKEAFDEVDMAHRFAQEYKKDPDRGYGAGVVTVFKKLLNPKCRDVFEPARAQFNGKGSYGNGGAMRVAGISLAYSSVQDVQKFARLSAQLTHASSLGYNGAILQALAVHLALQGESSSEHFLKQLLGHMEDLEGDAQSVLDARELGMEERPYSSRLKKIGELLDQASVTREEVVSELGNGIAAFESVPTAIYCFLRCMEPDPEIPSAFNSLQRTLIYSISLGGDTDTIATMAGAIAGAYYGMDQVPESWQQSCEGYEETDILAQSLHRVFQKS
UniProt Q9NX61: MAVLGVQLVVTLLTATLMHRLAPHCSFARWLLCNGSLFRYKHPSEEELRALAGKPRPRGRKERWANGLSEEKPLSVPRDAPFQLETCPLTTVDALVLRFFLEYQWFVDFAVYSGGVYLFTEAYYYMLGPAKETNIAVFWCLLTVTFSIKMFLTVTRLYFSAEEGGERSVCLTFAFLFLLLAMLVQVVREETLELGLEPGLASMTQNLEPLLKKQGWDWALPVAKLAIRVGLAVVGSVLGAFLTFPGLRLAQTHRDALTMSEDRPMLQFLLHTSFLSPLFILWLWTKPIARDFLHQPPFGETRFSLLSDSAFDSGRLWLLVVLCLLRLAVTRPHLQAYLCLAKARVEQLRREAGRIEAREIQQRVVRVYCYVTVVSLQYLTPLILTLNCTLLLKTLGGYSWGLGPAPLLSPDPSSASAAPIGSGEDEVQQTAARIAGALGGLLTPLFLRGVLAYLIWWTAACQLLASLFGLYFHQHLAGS
UniProt Q9UGI8: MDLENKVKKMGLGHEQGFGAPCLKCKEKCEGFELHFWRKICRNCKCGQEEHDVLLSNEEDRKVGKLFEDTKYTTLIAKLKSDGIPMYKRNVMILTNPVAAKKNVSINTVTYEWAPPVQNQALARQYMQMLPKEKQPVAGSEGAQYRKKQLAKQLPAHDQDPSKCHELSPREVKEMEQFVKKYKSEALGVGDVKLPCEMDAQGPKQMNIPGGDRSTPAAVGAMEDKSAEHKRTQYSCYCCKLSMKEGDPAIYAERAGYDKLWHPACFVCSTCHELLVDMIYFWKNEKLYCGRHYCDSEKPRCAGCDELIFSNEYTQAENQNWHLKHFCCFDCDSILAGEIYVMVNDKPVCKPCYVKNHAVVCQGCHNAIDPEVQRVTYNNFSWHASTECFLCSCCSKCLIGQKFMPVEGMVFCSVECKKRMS
UniProt Q9P2E9: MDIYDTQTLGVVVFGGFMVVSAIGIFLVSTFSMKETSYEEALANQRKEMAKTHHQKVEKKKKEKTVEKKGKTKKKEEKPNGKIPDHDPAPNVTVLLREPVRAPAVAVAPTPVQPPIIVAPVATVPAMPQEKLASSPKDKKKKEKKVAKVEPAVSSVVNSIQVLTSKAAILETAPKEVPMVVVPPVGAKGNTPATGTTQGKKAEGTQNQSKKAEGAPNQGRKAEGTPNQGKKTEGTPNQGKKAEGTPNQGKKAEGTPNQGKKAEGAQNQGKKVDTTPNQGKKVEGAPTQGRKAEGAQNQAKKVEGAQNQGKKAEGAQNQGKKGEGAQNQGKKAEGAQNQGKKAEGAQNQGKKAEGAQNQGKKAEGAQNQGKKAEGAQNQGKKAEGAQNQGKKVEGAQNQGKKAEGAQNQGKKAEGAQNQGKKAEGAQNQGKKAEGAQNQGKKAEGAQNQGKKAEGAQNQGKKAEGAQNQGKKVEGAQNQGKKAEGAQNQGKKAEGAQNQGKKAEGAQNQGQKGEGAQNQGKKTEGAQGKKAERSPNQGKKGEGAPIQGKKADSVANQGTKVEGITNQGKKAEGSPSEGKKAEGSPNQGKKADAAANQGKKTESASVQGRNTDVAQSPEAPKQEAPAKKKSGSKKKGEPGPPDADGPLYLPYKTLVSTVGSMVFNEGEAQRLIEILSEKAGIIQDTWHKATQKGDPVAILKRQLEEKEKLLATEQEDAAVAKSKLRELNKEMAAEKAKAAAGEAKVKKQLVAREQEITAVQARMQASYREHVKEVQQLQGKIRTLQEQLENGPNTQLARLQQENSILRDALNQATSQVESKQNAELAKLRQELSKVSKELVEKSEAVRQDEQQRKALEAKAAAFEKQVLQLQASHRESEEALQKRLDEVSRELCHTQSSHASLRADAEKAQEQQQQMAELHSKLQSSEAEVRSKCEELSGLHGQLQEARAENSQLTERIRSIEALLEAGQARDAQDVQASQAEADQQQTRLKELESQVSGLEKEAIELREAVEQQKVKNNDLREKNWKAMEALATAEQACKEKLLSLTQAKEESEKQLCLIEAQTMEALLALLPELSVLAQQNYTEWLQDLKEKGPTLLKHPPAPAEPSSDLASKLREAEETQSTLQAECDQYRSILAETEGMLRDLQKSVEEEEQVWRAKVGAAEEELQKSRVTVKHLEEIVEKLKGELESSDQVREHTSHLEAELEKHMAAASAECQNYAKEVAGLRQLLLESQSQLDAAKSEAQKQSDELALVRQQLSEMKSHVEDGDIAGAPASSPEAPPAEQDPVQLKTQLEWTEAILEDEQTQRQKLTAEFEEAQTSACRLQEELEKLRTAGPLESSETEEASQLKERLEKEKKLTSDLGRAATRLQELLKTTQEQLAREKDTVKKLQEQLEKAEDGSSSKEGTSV
UniProt Q9NZ08: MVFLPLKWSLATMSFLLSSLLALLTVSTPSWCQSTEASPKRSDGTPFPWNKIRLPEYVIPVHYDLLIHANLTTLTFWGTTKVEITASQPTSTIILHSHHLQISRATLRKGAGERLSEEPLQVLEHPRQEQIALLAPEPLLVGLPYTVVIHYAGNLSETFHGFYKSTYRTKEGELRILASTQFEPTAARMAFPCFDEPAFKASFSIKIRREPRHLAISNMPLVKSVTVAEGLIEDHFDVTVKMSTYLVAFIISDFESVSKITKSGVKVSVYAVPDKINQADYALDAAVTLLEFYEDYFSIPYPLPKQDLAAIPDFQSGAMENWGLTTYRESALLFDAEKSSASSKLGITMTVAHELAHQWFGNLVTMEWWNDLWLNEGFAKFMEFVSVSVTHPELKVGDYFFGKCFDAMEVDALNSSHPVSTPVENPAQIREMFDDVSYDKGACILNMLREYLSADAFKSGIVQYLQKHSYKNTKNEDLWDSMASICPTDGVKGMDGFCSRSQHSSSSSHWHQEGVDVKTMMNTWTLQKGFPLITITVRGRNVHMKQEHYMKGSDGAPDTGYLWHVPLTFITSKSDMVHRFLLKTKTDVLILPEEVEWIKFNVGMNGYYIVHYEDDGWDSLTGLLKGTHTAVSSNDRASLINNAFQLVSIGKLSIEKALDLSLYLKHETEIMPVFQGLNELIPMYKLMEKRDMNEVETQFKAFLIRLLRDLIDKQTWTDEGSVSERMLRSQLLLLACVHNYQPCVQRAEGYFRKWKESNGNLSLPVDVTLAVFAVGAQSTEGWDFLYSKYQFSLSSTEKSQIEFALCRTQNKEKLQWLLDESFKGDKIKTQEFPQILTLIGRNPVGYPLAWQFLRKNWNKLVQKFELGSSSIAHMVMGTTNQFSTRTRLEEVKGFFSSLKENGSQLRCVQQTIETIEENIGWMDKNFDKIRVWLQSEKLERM

Compound in the test: COC(=O)/C=C/c1ccccc1 [methyl cinnamate]
Kind of test: log2 ratio of iodoacetamide-alkyne labeling of the cysteine site, DMSO over compound (competition); higher = stronger covalent engagement of the cysteine by the compound, active = 1 or more. Conditions: 500 µM; treatment time 1 h; system: HEK293T cell lysate. The method in brief: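 HEK293T lysate at 2 mg/mL was treated with vehicle or electrophile (500 µM) for 1 h at ambient temperature, then labelled with iodoacetamide alkyne (1 h), clicked to sCIP-TMT reagents, pooled, digested with trypsin overnight at 37 °C, enriched on streptavidin and eluted with acid. Peptides were analysed by Orbitrap Eclipse LC-MS/MS with FAIMS and quantified in FragPipe, using duplicate channels and three replicates, with cysteines quantified in only one replicate excluded. The log2 competition ratio for each cysteine is the mean control-channel reporter intensity divided by the mean compound-channel reporter intensity.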
As to MKRN1 C179 (UniProt Q9UHC7), the “log2 ratio of iodoacetamide-alkyne labeling” value (shortened to “log2 ratio”) was inactive: 0.0097.

ALKBH4 C159 (UniProt Q9NXW9): the “log2 ratio” value was inactive: 0.101.

As for SDAD1 C87 (UniProt Q9NVU7), the “log2 ratio” value is inactive: 0.307.

Turning to MRPL22 C70 (UniProt Q9NWU5), the “log2 ratio” value is inactive: -0.126.

For the target UTP6 C310 (UniProt Q9NYH9), the “log2 ratio” value is inactive: 0.0434.

Turning to NDOR1 C507 (UniProt Q9UHB4), the “log2 ratio” value was inactive: -0.463.

As to DIP2B C333 (UniProt Q9P265), the “log2 ratio” value is inactive: 0.0252.

As to C9orf78 C145 (UniProt Q9NZ63), the “log2 ratio” value is inactive: 0.277.

Turning to VPS18 C22 (UniProt Q9P253), the “log2 ratio” value is inactive: -0.0364.

For the target FANCI C594 (UniProt Q9NVI1), the “log2 ratio” value was inactive: -0.21.

With MTPAP C242 (UniProt Q9NVV4), the “log2 ratio” value is inactive: 0.0686.

Regarding MRPL16 C167 (UniProt Q9NX20), the “log2 ratio” value was inactive: -0.219.

Regarding SRP68 C247 (UniProt Q9UHB9), the “log2 ratio” value is inactive: -0.129.

As to ADPRHL2 C132 (UniProt Q9NX46), the “log2 ratio” value is inactive: 0.172.

As for CDKN2AIP C178 (UniProt Q9NXV6), the “log2 ratio” value was inactive: 0.34.

As to TMEM161A C33 (UniProt Q9NX61), the “log2 ratio” value was inactive: -0.0494.

Take MRPL27 C88 (UniProt Q9P0M9): the “log2 ratio” value was inactive: 0.143.

As to MIOS C321 (UniProt Q9NXC5), the “log2 ratio” value was inactive: -0.243.

Consider TES C164 (UniProt Q9UGI8), for which the “log2 ratio” value was inactive: -0.117.

As to IFT172 C1686 (UniProt Q9UG01), the “log2 ratio” value was inactive: -0.195.

With TES C238 (UniProt Q9UGI8), the “log2 ratio” value is inactive: 0.0473.

Take MRPS18A C73 (UniProt Q9NVS2): the “log2 ratio” value was inactive: 0.213.

As for AASS C87 (UniProt Q9UDR5), the “log2 ratio” value was inactive: -0.0836.

For the target UniProt Q9NW64_C24, the “log2 ratio” value was inactive: 0.141.

Take LARS C554 (UniProt Q9P2J5): the “log2 ratio” value is inactive: 0.307.

As for TES C361 (UniProt Q9UGI8), the “log2 ratio” value was inactive: 0.0488.

Take RRBP1 C1216 (UniProt Q9P2E9): the “log2 ratio” value is inactive: 0.279.

For ATAD3A C618 (UniProt Q9NVI7), the “log2 ratio” value is inactive: 0.411.

Regarding BSDC1 C99 (UniProt Q9NW68), the “log2 ratio” value is inactive: 0.359.

Take MRPL39 C133 (UniProt Q9NYK5): the “log2 ratio” value is inactive: 0.631.

As to GDE1 C127 (UniProt Q9NZC3), the “log2 ratio” value is inactive: -0.219.

As to ASH2L C362 (UniProt Q9UBL3), the “log2 ratio” value was inactive: -0.0334.

With GMIP C895 (UniProt Q9P107), the “log2 ratio” value is inactive: 0.33.

For the target ERAP1 C486 (UniProt Q9NZ08), the “log2 ratio” value was inactive: 0.204.

Take HDAC6 C426 (UniProt Q9UBN7): the “log2 ratio” value was inactive: -0.224.

For TRMT1 C621 (UniProt Q9NXH9), the “log2 ratio” value is inactive: 0.575.

For RBM27 C776 (UniProt Q9P2N5), the “log2 ratio” value was inactive: -0.0329.

The values above are taken from the supplement of paper PMC11006884.
